# This is one part of the list. Single values of this set are uncertain.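 Many melting curves are irregular; where none melted, Tm was taken as 64 °C.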
# The chains behind the UniProt entries cited, without tags or fusion partners. Where a name states a change or a piece, a line headed by the entry shows the natural chain unless it says otherwise.
# UniProt Q15572: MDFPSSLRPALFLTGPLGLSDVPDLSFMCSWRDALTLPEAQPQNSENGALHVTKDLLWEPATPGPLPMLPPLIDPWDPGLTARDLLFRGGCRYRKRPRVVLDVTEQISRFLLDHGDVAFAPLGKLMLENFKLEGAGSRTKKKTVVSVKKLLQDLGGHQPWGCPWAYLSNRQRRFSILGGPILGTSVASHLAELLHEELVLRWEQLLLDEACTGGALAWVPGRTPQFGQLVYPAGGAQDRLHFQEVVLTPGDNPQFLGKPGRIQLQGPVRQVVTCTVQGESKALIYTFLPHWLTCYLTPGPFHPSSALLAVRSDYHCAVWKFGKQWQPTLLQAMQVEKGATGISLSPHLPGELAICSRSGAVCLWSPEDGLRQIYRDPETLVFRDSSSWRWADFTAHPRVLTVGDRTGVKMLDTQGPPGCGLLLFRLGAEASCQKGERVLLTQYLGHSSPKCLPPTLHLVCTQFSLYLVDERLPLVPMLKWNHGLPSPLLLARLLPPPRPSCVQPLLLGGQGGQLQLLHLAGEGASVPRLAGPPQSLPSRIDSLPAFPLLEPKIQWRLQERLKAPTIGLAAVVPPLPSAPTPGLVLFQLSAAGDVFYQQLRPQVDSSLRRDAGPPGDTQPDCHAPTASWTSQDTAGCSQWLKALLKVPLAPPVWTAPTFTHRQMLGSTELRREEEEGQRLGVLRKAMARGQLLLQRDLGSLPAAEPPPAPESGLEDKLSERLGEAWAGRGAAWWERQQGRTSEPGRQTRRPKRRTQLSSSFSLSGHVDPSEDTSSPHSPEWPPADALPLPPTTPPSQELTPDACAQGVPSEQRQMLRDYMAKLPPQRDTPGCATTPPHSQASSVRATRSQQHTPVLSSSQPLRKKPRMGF
# UniProt Q15532, whole entry: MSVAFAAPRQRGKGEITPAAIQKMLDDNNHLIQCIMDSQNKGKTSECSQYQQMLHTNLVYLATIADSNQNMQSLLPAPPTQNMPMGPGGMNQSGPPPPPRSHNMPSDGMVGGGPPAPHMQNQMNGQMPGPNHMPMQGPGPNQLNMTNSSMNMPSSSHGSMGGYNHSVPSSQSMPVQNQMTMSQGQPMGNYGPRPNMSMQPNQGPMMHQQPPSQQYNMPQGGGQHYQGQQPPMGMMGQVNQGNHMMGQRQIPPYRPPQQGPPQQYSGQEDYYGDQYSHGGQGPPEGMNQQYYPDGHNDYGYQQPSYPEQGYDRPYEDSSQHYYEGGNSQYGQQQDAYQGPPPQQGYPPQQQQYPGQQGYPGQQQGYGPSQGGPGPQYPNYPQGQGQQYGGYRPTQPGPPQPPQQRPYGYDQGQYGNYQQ
# UniProt Q17RS7: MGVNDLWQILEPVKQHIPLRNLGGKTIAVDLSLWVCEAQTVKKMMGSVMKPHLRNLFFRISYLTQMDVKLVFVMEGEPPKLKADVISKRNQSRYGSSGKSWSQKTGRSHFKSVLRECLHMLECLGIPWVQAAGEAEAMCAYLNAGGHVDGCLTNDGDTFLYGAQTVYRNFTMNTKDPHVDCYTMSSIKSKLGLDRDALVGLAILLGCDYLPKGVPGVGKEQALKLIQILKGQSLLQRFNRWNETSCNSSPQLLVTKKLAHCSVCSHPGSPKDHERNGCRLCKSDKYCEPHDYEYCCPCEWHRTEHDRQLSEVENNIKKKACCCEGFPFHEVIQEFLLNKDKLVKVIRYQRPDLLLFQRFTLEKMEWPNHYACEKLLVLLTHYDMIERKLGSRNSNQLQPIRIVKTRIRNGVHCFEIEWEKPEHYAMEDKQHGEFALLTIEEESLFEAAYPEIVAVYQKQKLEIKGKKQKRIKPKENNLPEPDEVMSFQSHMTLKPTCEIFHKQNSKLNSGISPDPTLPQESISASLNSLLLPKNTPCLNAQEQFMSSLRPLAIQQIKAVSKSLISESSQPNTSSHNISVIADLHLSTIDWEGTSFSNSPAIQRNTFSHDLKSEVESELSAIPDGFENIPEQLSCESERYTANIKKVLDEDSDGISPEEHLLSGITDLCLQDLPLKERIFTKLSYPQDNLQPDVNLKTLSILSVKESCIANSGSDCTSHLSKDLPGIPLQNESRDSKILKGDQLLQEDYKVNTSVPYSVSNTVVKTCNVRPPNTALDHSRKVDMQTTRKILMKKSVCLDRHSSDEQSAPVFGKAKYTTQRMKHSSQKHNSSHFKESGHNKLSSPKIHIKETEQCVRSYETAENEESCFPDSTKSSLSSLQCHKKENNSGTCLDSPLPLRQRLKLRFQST
# UniProt Q15293: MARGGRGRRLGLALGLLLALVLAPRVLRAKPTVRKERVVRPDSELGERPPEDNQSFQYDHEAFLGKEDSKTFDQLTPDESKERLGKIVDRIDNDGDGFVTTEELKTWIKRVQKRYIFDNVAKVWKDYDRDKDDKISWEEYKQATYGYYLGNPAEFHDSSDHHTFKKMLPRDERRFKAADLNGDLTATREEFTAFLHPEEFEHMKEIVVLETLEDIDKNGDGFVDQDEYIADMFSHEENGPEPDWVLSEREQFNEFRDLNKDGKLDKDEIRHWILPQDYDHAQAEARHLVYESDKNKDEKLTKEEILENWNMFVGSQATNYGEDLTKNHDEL
# UniProt Q4VC31: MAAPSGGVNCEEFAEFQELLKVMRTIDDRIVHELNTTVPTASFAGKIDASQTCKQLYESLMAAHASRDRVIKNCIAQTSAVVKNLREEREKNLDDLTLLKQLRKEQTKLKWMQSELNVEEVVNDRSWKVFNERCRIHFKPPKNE
# UniProt Q49MG5: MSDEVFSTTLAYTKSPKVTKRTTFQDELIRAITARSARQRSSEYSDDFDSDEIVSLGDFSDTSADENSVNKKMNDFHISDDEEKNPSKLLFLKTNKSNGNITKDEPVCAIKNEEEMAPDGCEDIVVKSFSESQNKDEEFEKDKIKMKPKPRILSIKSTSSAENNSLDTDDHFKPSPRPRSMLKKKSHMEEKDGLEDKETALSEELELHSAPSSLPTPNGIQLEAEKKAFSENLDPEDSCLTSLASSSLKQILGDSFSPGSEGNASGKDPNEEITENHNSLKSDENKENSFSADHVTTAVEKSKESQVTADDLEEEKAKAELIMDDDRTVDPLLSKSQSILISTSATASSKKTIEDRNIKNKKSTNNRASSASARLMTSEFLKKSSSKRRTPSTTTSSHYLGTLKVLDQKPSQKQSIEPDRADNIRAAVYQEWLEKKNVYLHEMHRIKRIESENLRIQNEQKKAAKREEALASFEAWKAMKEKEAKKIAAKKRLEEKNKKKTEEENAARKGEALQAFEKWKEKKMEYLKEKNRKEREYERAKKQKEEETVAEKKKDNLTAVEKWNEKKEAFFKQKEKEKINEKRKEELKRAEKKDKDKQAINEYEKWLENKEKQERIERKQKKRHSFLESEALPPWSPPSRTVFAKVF
# UniProt Q4KMP7: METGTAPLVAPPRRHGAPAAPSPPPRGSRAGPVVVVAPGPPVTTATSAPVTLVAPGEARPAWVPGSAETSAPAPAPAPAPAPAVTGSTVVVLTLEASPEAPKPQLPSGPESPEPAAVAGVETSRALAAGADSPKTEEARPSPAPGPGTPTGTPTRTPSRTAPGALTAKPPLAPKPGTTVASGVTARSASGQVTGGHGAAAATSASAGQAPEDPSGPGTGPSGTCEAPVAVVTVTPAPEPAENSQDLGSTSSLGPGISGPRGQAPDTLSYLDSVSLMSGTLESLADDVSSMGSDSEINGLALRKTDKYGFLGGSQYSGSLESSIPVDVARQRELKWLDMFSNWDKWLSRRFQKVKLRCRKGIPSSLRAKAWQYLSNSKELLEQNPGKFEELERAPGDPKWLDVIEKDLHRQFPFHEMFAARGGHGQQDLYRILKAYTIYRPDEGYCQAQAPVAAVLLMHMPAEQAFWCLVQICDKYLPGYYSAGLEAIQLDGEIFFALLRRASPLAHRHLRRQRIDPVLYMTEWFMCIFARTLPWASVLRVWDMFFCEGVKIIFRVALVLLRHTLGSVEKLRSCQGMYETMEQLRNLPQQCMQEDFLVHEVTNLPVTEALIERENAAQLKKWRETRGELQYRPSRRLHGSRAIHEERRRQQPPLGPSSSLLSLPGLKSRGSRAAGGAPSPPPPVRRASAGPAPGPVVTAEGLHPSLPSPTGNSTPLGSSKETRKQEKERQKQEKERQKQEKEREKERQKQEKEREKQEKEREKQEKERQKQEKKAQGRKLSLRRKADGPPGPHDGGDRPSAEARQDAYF
# UniProt Q15678: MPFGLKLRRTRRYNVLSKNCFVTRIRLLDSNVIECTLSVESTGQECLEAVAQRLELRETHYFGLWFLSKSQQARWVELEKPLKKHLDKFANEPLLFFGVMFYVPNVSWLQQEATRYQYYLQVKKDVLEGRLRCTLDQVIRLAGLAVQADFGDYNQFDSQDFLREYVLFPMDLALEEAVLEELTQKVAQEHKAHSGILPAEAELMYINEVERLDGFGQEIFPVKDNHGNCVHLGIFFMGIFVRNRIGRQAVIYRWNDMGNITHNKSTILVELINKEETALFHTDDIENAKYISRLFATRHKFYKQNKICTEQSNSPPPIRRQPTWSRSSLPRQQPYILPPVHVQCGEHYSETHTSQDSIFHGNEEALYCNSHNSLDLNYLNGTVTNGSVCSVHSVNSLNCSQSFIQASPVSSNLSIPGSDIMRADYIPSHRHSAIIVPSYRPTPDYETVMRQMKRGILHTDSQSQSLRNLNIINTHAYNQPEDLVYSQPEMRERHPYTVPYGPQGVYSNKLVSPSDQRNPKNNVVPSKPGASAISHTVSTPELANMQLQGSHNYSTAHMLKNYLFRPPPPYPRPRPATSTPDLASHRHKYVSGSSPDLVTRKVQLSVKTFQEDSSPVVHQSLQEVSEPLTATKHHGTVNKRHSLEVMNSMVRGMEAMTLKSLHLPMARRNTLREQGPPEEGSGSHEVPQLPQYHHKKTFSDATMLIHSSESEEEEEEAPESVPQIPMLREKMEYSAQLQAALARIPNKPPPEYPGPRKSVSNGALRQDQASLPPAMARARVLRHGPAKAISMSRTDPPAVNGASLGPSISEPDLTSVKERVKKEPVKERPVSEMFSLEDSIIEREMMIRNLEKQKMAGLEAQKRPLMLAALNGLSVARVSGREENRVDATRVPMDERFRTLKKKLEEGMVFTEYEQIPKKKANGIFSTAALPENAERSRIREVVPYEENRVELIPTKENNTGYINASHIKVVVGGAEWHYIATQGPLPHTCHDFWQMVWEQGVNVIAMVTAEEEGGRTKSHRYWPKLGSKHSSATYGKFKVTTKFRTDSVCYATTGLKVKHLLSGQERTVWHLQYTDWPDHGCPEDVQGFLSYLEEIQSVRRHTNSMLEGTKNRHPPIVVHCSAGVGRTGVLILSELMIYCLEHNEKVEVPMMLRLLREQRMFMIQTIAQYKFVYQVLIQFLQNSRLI
# UniProt Q15181: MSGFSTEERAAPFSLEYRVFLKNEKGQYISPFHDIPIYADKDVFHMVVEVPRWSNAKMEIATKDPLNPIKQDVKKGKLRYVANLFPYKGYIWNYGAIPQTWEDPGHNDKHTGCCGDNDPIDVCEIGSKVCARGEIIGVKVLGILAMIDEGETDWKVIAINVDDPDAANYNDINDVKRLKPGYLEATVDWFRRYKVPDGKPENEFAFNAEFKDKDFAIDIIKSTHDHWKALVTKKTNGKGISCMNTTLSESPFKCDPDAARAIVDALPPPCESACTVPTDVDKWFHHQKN
# UniProt Q2M2I8: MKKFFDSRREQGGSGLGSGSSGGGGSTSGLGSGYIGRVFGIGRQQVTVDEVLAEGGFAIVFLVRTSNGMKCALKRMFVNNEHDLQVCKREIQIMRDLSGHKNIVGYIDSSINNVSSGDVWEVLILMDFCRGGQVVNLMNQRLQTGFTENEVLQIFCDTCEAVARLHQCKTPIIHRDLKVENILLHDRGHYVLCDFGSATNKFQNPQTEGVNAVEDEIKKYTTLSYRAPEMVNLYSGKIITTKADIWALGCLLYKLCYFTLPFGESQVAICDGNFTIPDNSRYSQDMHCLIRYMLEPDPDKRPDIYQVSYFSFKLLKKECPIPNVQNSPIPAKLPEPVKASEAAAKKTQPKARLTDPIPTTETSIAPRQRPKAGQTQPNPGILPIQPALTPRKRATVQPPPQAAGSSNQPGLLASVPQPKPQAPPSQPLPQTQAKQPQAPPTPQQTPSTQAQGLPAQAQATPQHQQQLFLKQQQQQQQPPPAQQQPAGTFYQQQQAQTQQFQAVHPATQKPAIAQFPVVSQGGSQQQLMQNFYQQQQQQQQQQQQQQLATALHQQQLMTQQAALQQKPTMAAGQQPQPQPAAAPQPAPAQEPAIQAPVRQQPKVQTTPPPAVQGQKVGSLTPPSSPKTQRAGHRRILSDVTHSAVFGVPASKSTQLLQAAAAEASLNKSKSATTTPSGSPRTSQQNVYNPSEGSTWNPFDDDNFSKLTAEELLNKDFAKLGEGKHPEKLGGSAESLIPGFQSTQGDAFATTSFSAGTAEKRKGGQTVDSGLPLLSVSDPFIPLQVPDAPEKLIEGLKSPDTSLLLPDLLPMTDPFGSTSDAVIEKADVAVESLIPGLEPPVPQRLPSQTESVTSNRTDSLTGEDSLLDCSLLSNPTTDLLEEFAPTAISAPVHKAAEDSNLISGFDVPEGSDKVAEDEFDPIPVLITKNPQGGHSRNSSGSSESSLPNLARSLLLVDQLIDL
# Compound: CCc1cnccc1C(=O)Nc1cc2c(cc1F)NC(=O)CC2
# Assay: melting temperature shift (DMSO Tm minus MBE1-treated Tm) in cellular thermal proteome profiling; higher = less thermal stabilization by MBE1 (negative = stabilized by MBE1)
# Details: A375; MBE1 concentration: 100 nM
row,Target,melting temperature shift [°C]
1,LGALSL (UniProt Q3ZCW2),0.604
2,SF3A2 (UniProt Q15428),0.678
3,USP39 (UniProt Q53GS9),0.0305
4,ADRM1 (UniProt Q16186),0.959
5,PYCRL (UniProt Q53H96),-1.11
6,TRIP10 (UniProt Q15642),0.263
7,SF3A1 (UniProt Q15459),1.51
8,UniProt Q15572,-2.41
9,UniProt Q15532,-3.42
10,UniProt Q17RS7,-4.23
11,RCN1 (UniProt Q15293),-2.8
12,OXA1L (UniProt Q15070),-0.44
13,CCDC58 (UniProt Q4VC31),-0.874
14,GXYLT1 (UniProt Q4G148),-0.932
15,UniProt Q49MG5,-1.94
16,SLC9A3R2 (UniProt Q15599),-7.7
17,UniProt Q16363,0.125
18,UAP1L1 (UniProt Q3KQV9),-0.557
19,UniProt Q562F6,0.177

row,Target,melting temperature shift [°C]
1,C5ORF22 (UniProt Q49AR2),-0.315
2,VPS26B (UniProt Q4G0F5),-0.423
3,TBC1D10B (UniProt Q4KMP7),-0.215
4,CDC37 (UniProt Q16543),-0.449
5,ACOX1 (UniProt Q15067),-1.56
6,PDK2 (UniProt Q15119),0.739
7,UniProt Q53ET0,-1.32
8,LARP7 (UniProt Q4G0J3),0.446
9,ALG11 (UniProt Q2TAA5),-0.905
10,UniProt Q15678,-0.306
11,ARL13B (UniProt Q3SXY8),-0.512
12,TYSND1 (UniProt Q2T9J0),-1.28
13,QRICH1 (UniProt Q2TAL8),-0.282
14,LLGL1 (UniProt Q15334),-0.118
15,UniProt Q53HL2,1.39
16,PPA1 (UniProt Q15181),-0.733
17,AAK1 (UniProt Q2M2I8),-0.0733
18,UAP1 (UniProt Q16222),-0.972
19,UGT8 (UniProt Q16880),-1.42

# Same assay, conditions: A375; MBE1 concentration: 1 uM
row,Target,melting temperature shift [°C]
1,LGALSL (UniProt Q3ZCW2),0.154
2,SF3A2 (UniProt Q15428),0.488
3,USP39 (UniProt Q53GS9),-0.0427
4,ADRM1 (UniProt Q16186),0.488
5,PYCRL (UniProt Q53H96),-0.174
6,TRIP10 (UniProt Q15642),-0.202
7,SF3A1 (UniProt Q15459),0.0122
8,UniProt Q15572,-0.468
9,UniProt Q15532,0.493
10,UniProt Q17RS7,-2.91
11,RCN1 (UniProt Q15293),-3.16
12,OXA1L (UniProt Q15070),-0.55
13,CCDC58 (UniProt Q4VC31),0.64
14,GXYLT1 (UniProt Q4G148),-0.785
15,UniProt Q49MG5,1.81
16,SLC9A3R2 (UniProt Q15599),-0.836
17,UniProt Q16363,-0.174
18,UAP1L1 (UniProt Q3KQV9),0.228
19,UniProt Q562F6,-0.427

row,Target,melting temperature shift [°C]
1,C5ORF22 (UniProt Q49AR2),0.369
2,VPS26B (UniProt Q4G0F5),-0.0805
3,TBC1D10B (UniProt Q4KMP7),-0.376
4,CDC37 (UniProt Q16543),-0.402
5,ACOX1 (UniProt Q15067),2.4
6,PDK2 (UniProt Q15119),0.501
7,UniProt Q53ET0,-1.84
8,LARP7 (UniProt Q4G0J3),-0.611
9,ALG11 (UniProt Q2TAA5),0.246
10,UniProt Q15678,-0.419
11,ARL13B (UniProt Q3SXY8),-0.0183
12,TYSND1 (UniProt Q2T9J0),-0.287
13,QRICH1 (UniProt Q2TAL8),-0.224
14,LLGL1 (UniProt Q15334),-1.07
15,UniProt Q53HL2,3.95
16,PPA1 (UniProt Q15181),1.3
17,AAK1 (UniProt Q2M2I8),0.14
18,UAP1 (UniProt Q16222),0.671
19,UGT8 (UniProt Q16880),0.735
